Assay results: patent publication US12048734B2, “Bioactive peptides and methods of use thereof” (OP-T LLC, priority 2020, dated 2024)
At least one peptide structure holds a part that was inferred or is arguable (an end, a ring closure or a residue).

Sequences of proteins named here, by UniProt entry; tags and fusion partners are left off. Residues count along the entry.
UniProt P25942, 21-277: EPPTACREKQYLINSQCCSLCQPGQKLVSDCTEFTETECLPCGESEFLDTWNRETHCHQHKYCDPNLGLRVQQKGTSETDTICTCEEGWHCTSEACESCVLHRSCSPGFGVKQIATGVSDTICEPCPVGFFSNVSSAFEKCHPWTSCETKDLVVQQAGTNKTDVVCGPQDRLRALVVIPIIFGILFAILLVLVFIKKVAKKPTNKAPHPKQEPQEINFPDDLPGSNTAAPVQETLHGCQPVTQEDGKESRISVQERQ

Assays:
[1] = system: hypercytokinemia response; test: Endotoxin challenge hypercytokinemia in normal mice; assay type: in vivo; conditions: IV pre-treatment at 5 to 20 mg/kg
Human T cells = Human T cells stimulated with antigen presenting cells loaded with human islets, intracellular IFNγ and IL-4; assay type: cell-based; conditions: T cells from peripheral blood of T1D subjects, absence/presence of KGYY15
[2] = target: T1, CD40/CD154 lymphocyte interaction (Homo sapiens, UniProt P25942); test: Interference with CD40/CD154 lymphocyte interaction
T1 construct: Controlling the CD40/CD154 mediated signals on T cells, but also on monocytes and macrophages; endogenous in cells; host or cells: lymphocytes of human patients

Th40 cells (CD4+CD40+) = test: Ex-vivo cytokine staining of Th40 cells from NOD mice treated with KGYY15; assay type: in vivo; conditions: NOD mice treated with KGYY15 vs control mice; peripheral lymph node, pancreatic lymph node, spleen; cytokine-positive cells within CD4+CD40+
CD40/CD154 interaction = target: T2, CD40/CD154 interaction (Mus musculus, UniProt P27512); conditions: Vaitaitis et al 2014, cited from earlier work
T2 sequence (P27512 20-289): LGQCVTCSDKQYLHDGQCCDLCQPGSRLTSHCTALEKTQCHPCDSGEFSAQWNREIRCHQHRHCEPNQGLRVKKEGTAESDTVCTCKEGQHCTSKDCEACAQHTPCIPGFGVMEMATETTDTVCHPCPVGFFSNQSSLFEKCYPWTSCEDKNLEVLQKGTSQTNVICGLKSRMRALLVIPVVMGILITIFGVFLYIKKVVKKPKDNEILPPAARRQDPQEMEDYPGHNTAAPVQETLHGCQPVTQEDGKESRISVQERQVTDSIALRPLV

SMILES: CSCC[C@H](NC(=O)[C@@H](NC(=O)[C@H](Cc1ccc(O)cc1)NC(=O)[C@H](Cc1ccc(O)cc1)NC(=O)CNC(=O)[C@H](CCCCN)NC(=O)[C@H](CCCCN)NC(=O)[C@H](C)NC(=O)[C@H](Cc1c[nH]c2ccccc12)NC(=O)[C@H](CCC(N)=O)NC(=O)[C@H](CC(C)C)NC(=O)[C@@H](N)C(C)C)[C@@H](C)O)C(=O)N[C@@H](CCCCN)C(=O)N[C@@H](CO)C(=O)N[C@@H](CC(N)=O)C(=O)O [OPT101, VLQWAKKGYYTMKSN]
- hypercytokinemia response [1]: at 5 to 20 mg/kg resulted in significant decrease in the hypercytokinemia
- intracellular IL-4 (non-inflammatory) (Human T cells): without impacting production
- intracellular IFNγ (Human T cells; P<0.0001): regulates
- CD40/CD154 lymphocyte interaction [2]: disease. OPT101 has been shown to interfere with the CD40/CD154
- production of inflammatory cytokines by Th40 cells (Th40 cells (CD4+CD40+)): controls the production of inflammatory cytokines
- control of autoimmune diseases type I diabetes and multiple sclerosis (CD40/CD154 interaction; Vaitaitis et al 2019): highly successful in controlling
- inflammatory cytokines when CD40/CD154 interaction was inhibited (CD40/CD154 interaction): substantially and significantly reduced
